Measurements: patent publication US20230190887A1, “TARGETING G3BP AGGREGATION TO PREVENT NEURODEGENERATION” (priority 2019, published 2023)
For at least one compound, name, drawing or mass did not settle the structure.

What was measured:
[1] = test system: TDPΔNLS MN-muscle co-cultures; assay: Co-culture contraction analysis; assay type: cell-based, mouse; conditions: dox re-introduction (proximal MN compartment after 5 DIV)
Protocol: Muscles in co-culture were kept in BA medium for 7 days. To aid NMJ formation, media in all compartments was then replaced to poor neurobasal (PNB) medium, which contained only 1% P/S and 1% Glutamax. Doxycycline was applied to TDP-43ΔNLS cultures only at the proximal MN compartment, in a concentration of 0.1 μg/mL, immediately after plating and throughout the entire experimental timeline. For TDPΔNLS recovery experiments (FIGS. 7-8), Doxycline was […] at the proximal MN compartment after 5 DIV, and the cultures were grown until 11 DIV. […] NMJ activity was assessed by quantifying the percent of innervated and contracting myocytes in co-culture as previously described36. Briefly, after 12 days in co-culture, phase-contrast time lapse image series were acquired at a frame rate of 25 frames-per-second (25 FPS) using a X20 air objective. During imaging, cultures were maintained in controlled temperature and CO2 environment. For obtaining contraction time traces, we used the “Time Series Analyzer V3” plugin for FIJI ImageJ V.2.0.0, and marked a region of interest on a small, high contrast and mobile region on the muscle, and then obtained the mean values for each time point.

TDPΔNLS mice = assay: Recovery paradigm with doxycycline re-introduction in TDPΔNLS mice; assay type: in vivo, mouse
[2] = doxycycline reintroduced into diet after initial deprivation

Structure (SMILES): C[C@H]1c2cccc(O)c2C(=O)C2=C(O)[C@]3(O)C(=O)C(C(N)=O)=C(O)[C@@H](N(C)C)[C@@H]3[C@@H](O)[C@@H]21 [doxycycline]
- percent of innervated muscles that contract [1]: reversed
- TDP-43 mediated toxicity (TDPΔNLS mice; dox re-application): rescues TDP-43 mediated toxicity
- local protein synthesis (OPP signal) (TDPΔNLS mice; dox re-application): reverses local synthesis inhibition
- TDP-43 and pTDP-43 levels in the spinal cord (TDPΔNLS mice; [2]): lowered TDP-43 and pTDP-43 levels
- TDP-43 localization (nuclear re-distribution) (TDPΔNLS mice; [2]): partial re-distribution into nuclei
- TDP-43 localization (nuclear re-distribution) (TDPΔNLS mice; doxycycline reintroduced into diet after initial deprivation, listed as Dox): restores TDP-43 localization
